# These are yes or no findings as the source states them, for the method shown. In cells and extracts the contact can be indirect. Some results given as binding are weak or reduced against the parent protein; the word gives no strength.
# Sequences of proteins named here, by UniProt entry; tags and fusion partners are left off.
# UniProt O14893: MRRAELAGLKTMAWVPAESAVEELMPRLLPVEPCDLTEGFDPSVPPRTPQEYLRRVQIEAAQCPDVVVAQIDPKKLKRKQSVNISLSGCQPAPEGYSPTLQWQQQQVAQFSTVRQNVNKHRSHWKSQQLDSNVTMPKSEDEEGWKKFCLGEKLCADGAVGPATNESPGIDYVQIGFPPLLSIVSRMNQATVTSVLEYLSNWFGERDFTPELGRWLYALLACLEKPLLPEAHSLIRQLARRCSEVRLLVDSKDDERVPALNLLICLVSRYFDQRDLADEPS
# UniProt Q16637: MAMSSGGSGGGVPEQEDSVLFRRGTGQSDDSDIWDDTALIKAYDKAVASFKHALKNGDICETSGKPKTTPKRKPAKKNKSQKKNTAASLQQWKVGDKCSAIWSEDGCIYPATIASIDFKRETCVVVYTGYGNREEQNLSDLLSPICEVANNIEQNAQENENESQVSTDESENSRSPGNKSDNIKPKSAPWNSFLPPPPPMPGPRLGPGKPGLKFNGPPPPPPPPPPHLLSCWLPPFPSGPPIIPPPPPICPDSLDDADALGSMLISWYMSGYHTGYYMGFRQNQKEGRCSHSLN
# Biological target: GST-Gemin2 (human Gemin2, hGemin2) (human) (UniProt O14893)
# Experiment: pull-down; HIS6-SMN and GST-Gemin2 co-expressed in E. coli; clarified lysate (PBS, 1% Triton X-100) mixed with Glutathione Sepharose 4B beads at 4°C for 3 hr; washed with PBS + 1% Triton X-100, then PBS + 0.1% Triton X-100; bands seen by Coomassie stain and Western blot
substance,measurement,value
"HIS6-SMN (human survival motor neuron protein, hSMN1) (from UniProt Q16637 1-294)",binding,binds

# From publication PMC3012718
